PubChem BioAssay AID1259308 – NCATS, 2017

Assay: 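Genes whose loss raises luciferase production in HEK293 cells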 (primary screen)
System: human HEK293 embryonic kidney cells stably expressing firefly luciferase (HEK-CMV-Luc2-Hygro)
Knock-down reagent: single siRNA against human genes, 0.8 pmol siRNA per well
Duration: 72 h
Read-out: 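Luciferase light (ONE-Glo) measured on one replicate plate set and viability (CellTiter-Glo) on the other, scaled to a negative control siRNA, with robust z-scores and luciferase per cell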
Scale: total luciferase, z-score and total luciferase, % of control: higher = more reporter protein produced
Hit rule: 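An siRNA counts as active if its total luciferase robust z-score exceeds 3; genes with two or more such siRNAs out of three were retested with fresh siRNAs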
Calls: active = raised luciferase; inactive = no rise
Here is a random part of about 59,000 deposited reagents. About 1,510 of all reagents (2.6%) count as active. 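Calls use total luciferase alone and ignore viability, so some active siRNAs may act by altering cell number.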 Entries without a mark were called inactive. The numbers tell different reagents against one gene apart. Not all columns of the deposit are shown.

| Target gene | reagent no. | total luciferase, z-score | total luciferase, % of control |
| --- | --- | --- | --- |
| FBXO22 (F-box protein 22) | 1 | -1.29 | 56.2 |
| FBXO22 (F-box protein 22) | 2 | 1.24 | 107 |
| FBXO22 (F-box protein 22) | 3 | -0.421 | 73.5 |
| ZFP14 (ZFP14 zinc finger protein) | 1 | -0.779 | 66.4 |
| ZFP14 (ZFP14 zinc finger protein) | 2 | -0.663 | 68.7 |
| ZFP14 (ZFP14 zinc finger protein) | 3 | 0.0896 | 83.7 |
| CALR3 (calreticulin 3) | 1 | -2.17 | 38.7 |
| CALR3 (calreticulin 3) | 2 | -0.0422 | 81 |
| CALR3 (calreticulin 3) | 3 | -0.402 | 73.9 |
| PCLO (piccolo presynaptic cytomatrix protein) | 1 | -1.78 | 46.5 |
| PCLO (piccolo presynaptic cytomatrix protein) | 2 | 0.122 | 84.3 |
| PCLO (piccolo presynaptic cytomatrix protein) | 3 | -0.302 | 75.9 |
| DOP1A (DOP1 leucine zipper like protein A) | 1 | 0.454 | 90.9 |
| DOP1A (DOP1 leucine zipper like protein A) | 2 | 0.595 | 93.7 |
| DOP1A (DOP1 leucine zipper like protein A) | 3 | 0.387 | 89.6 |
| LINC00863 (long independently transcribed non-coding RNA 863) | 1 | -1.22 | 57.7 |
| LINC00863 (long independently transcribed non-coding RNA 863) | 2 | 1.48 | 111 |
| LINC00863 (long independently transcribed non-coding RNA 863) | 3 | 2.01 | 122 |
| ZFAND2A (zinc finger AN1-type containing 2A) | 1 | 1.75 | 117 |
| ZFAND2A (zinc finger AN1-type containing 2A) | 2 | 2.82 | 138 |
| ZFAND2A (zinc finger AN1-type containing 2A) | 3 | 1.73 | 116 |

Copied from the listing (2 entries):
| Target gene | reagent no. | total luciferase, z-score | total luciferase, % of control |
| --- | --- | --- | --- |
| ZFP14 (ZFP14 zinc finger protein) | 2 | -0.663 | 68.7 |
| ZFP14 (ZFP14 zinc finger protein) | 3 | 0.0896 | 83.7 |

More entries follow.
| Target gene | reagent no. | total luciferase, z-score | total luciferase, % of control |
| --- | --- | --- | --- |
| MEX3C (mex-3 RNA binding family member C) | 1 | -0.105 | 79.8 |
| MEX3C (mex-3 RNA binding family member C) | 2 | -0.879 | 64.4 |
| MEX3C (mex-3 RNA binding family member C) | 3 | -0.382 | 74.3 |
| IMP3 (IMP U3 small nucleolar ribonucleoprotein 3) | 1 | -0.779 | 66.4 |
| IMP3 (IMP U3 small nucleolar ribonucleoprotein 3) | 2 | -0.196 | 78 |
| IMP3 (IMP U3 small nucleolar ribonucleoprotein 3) | 3 | -0.855 | 64.9 |
| TAF5 (TATA-box binding protein associated factor 5) | 1 | -0.431 | 73.3 |
| TAF5 (TATA-box binding protein associated factor 5) | 2 | 1.28 | 107 |
| TAF5 (TATA-box binding protein associated factor 5) | 3 | 0.522 | 92.3 |
| EDEM2 (ER degradation enhancing alpha-mannosidase like protein 2) | 1 | 0.781 | 97.4 |
| EDEM2 (ER degradation enhancing alpha-mannosidase like protein 2) | 2 | -0.513 | 71.7 |
| EDEM2 (ER degradation enhancing alpha-mannosidase like protein 2) | 3 | 2.35 | 129 |
| IQUB (IQ motif and ubiquitin domain containing) | 1 | -0.223 | 77.4 |
| IQUB (IQ motif and ubiquitin domain containing) | 2 | -0.107 | 79.8 |
| IQUB (IQ motif and ubiquitin domain containing) | 3 | 0.412 | 90.1 |
| EFEMP1 (EGF-like fibulin extracellular matrix protein 1) | 1 | -0.0783 | 80.3 |
| EFEMP1 (EGF-like fibulin extracellular matrix protein 1) | 2 | -1.2 | 58 |
| EFEMP1 (EGF-like fibulin extracellular matrix protein 1) | 3 | -0.137 | 79.2 |
